# From US12281080B2, “Quinoline-based compounds and methods of inhibiting CDK8/19” (University of South Carolina, priority 2018, dated 2025)
# Tested on: 468 human kinases and disease relevant mutant variants
# Assay: KINOMEscan scanMAX panel, whole panel
# Format: binding
# Details: 2,000 nM
smiles,measurement,setting,value
"CN1CCN(C(=O)c2ccc3cc(CCNc4ccnc5ccc(C#N)cc45)ccc3c2)CC1 [compound 6148, 4-((2-(6-(4-methylpiperazine-1-carbonyl)naphthalen-2-yl)ethyl)amino)quinoline-6-carbonitrile]",S(10) kinome selectivity S-score,(number of non-mutant kinases with % Ctrl <10)/(number of non-mutant kinases tested),0.002
same,S(35) kinome selectivity S-score,(number of non-mutant kinases with % Ctrl <35)/(number of non-mutant kinases tested),0.012
